Experiment [1] has as its target T1, GST461-70 (GST fusion with aa 461-aa 470 of SEQ ID NO: 2) (human).
T1 sequence: TQPPPPRNSN
The experiment is described as follows: ELISA on GST fusion proteins. On the technique in general: In an ELISA, binding on a coated surface is turned into a signal by an enzyme label.

Experiment [2] shares this target. Kind of experiment: ELISA, plates immobilized with GST proteins at 0.5 ug/ml (FIG. 44).
For experiment [3], the target named is T2, GST456-65 (GST fusion with aa 456-aa 465 of SEQ ID NO: 2) (human).
T2 sequence: RPPKLTQPPP
Kind of experiment: ELISA on GST fusion proteins.

Experiment [4] has the same target. Kind of experiment: ELISA, plates immobilized with GST proteins at 0.5 ug/ml (FIG. 44).

No constants are given. Whether binding was seen depends on the method and setting. Some entries that bind do so weakly or less than the wild type. Sequences can lack the tags named with a protein.

The results in this text go back to patent publication US20110293618A1 (MEDICAL AND BIOLOGICAL LABORATORIES, published 2011).

B1: FA17-9 (antibody, V domains shown)
VH: EVQLQQSGPELVKPGASVKMSCKASGYTFTTYVMHWVKQKPGQGLEWIGYINPYNDGTKYNEKFKGKATLTSDKSSSTAYMELSSLTSEDSAVYYCARGANYYGSSYNWSFDVWGAGTTVTVSS
VL: DIQMTQSPSSLSASLGGKVTITCKASQDINKYIAWYQHKPGEGPRLLIHYTSTLQPGIPSRFSGSGSGRDYSFSISNLEPEDIATYYCLQYDYLWTFGGGTKL
notes: Mouse monoclonal; also called antibody No. FA17-9; Antibody 1
Regarding B1, the binding result in experiment [1] and in experiment [2] was “binds” each time.

B2: FA19-1 (antibody, V domains shown)
VH: EVQLQQSGPELVKPGASVKMSCKASGYTFTTYIMHWVKQKPGQGLEWIGYINPYNDGTKYNEKFKGEATLTSDKSSSTAYMELSSLTSEDSAVYYCARGANYYGSNYNWSFDVWGAGTTVTVSS
VL: DIQMTQSPSSLSASLGGKVTITCRASQDINKYIAWYQHKPGKGPRLLIHHTCTLQPGIPSRFSGSGSGRDYSFSISNLEPEDIATYYCLQYDYLWTFGGGTKL
notes: Mouse monoclonal; also called antibody No. FA19-1; Antibody 2
On to B2, for which the binding result in experiment [1] and in experiment [2] was “binds” in each case.

B3: 6AA-17-2 (antibody, V domains shown)
VH: EVQLQQSGAELVRPGALVKLSCKASGFNIKDYYMHWVKQRPEQGLEWIGWIDPENDNTIYDPKFQGKASITADTSSNTAYLHLSSLTSEDTAVYYCARAYGYDDYYAMEYWGQGTSVTVSS
VL: NIMMTQSPSSLAVSAGEKVTMSCKSSQSVLYSSNQKNYLAWYQQKPGQSPKLLIYWTSTRESGVPDRFTGSGSGTDFTLTISSVQAEDLAIYYCHQYLYSYTFGGGTKL
notes: Mouse monoclonal raised against the partial protein containing the FA58C domain; also called Antibody 3
In the case of B3, the binding entry in experiment [3] and in experiment [4] was “binds” throughout.
